Results on two molecules are retold here after PMC10053972.

These are yes or no findings as the source states them, for the method shown. In cells and extracts the contact can be indirect. Some binding calls cover weakened binding; strength is not graded here. For some assays here: Where a sequence is shown, tags or fusion partners need not be part of it.

Test [1] concerns the target T1, Cell division cycle associated 8 (CDCA8), in 293 T cells (human (endogenous in 293 T)) (UniProt Q53HL2).
T1 sequence: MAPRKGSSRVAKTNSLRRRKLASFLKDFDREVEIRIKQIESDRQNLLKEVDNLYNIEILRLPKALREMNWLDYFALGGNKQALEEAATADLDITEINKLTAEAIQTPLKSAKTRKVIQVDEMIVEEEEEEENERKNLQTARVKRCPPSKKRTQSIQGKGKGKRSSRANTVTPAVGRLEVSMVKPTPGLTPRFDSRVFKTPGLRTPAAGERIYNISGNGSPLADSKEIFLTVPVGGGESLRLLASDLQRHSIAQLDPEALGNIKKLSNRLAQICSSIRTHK
As to the kind of experiment: co-IP; exogenous Co-IP: proteins of 293 T cells infected with TMED3-Flag immunoprecipitated with Flag, CDCA8 or IgG, then western blot.

The target of test [2] is T2, endogenous Cell division cycle associated 8 (CDCA8) (human (endogenous in A375 and OM431)) (UniProt Q53HL2).
T2 sequence: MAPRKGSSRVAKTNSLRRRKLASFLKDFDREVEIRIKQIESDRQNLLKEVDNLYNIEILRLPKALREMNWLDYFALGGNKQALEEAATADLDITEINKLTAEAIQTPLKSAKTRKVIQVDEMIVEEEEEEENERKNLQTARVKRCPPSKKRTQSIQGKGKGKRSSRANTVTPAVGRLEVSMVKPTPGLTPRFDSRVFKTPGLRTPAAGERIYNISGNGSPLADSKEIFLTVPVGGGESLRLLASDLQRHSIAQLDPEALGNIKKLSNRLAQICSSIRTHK
As to the kind of experiment: co-IP; endogenous Co-IP: proteins of A375 and OM431 cells immunoprecipitated (IgG control), separated by 10% SDS-PAGE and blotted for TMED3 and CDCA8.

B1: TMED3-Flag (protein, UniProt Q9Y3Q3 24-217)
chain: PCGAELTFELPDNAKQCFHEEVEQGVKFSLDYQVITGGHYDVDCYVEDPQGNTIYRETKKQYDSFTYRAEVKGVYQFCFSNEFSTFSHKTVYFDFQVGDEPPILPDMGNRVTALTQMESACVTIHEALKTVIDSQTHYRLREAQDRARAEDLNSRVSYWSVGETIALFVVSFSQVLLLKSFFTEKRPISRAVHS
In the case of B1, the binding result in test [1] was “binds”.

B2: endogenous TMED3 (protein, UniProt Q9Y3Q3 24-217)
chain: PCGAELTFELPDNAKQCFHEEVEQGVKFSLDYQVITGGHYDVDCYVEDPQGNTIYRETKKQYDSFTYRAEVKGVYQFCFSNEFSTFSHKTVYFDFQVGDEPPILPDMGNRVTALTQMESACVTIHEALKTVIDSQTHYRLREAQDRARAEDLNSRVSYWSVGETIALFVVSFSQVLLLKSFFTEKRPISRAVHS
In the case of B2, in test [2], the binding entry is given as “binds”.
